The source of these data is the supplement of paper PMC6143611.

± gives the uncertainty stated by the source. Some of the results follow. Baselines shift from plate to plate; read single values as rough.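 Larvae carried a heat-shock-induced fluorescent stripe in rod outer segments, set at 6 dpf; the shedding distance runs from this stripe to the outer segment tip, measured in confocal stacks, about three fish per compound. The controls got 0.2% DMSO vehicle, and the paper flagged compounds with at least a 20% change against the same-week control and p < 0.001 (Dunnett test on mixed-effects models).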

Assay [1] relates to Danio rerio larva rod photoreceptor outer segment. Description: rod outer segment growth distance Dg, difference from same-week DMSO control mean; higher = more outer segment growth. The following applies: 20 µM; treatment time: 4 days (6-10 dpf).
The test system is the same in assay [2]. Description: rod outer segment shedding distance Ds, difference from same-week DMSO control mean; higher = less outer segment shedding. The following applies: 20 µM; treatment time: 4 days (6-10 dpf).

As to `C[C@@H](c1ncncc1F)[C@](O)(Cn1cncn1)c1ccc(F)cc1F` [Voriconazole], the “rod outer segment growth distance Dg” value in assay [1] was -0.36 ± 0.16 um. Besides, the “rod outer segment shedding distance Ds” value in assay [2] was -0.14 ± 0.18 um.
Take `COC[C@H](NC(=O)c1cnc(C)s1)C(=O)N[C@@H](COC)C(=O)N[C@@H](Cc1ccccc1)C(=O)[C@@]1(C)CO1` [Oprozomib (ONX 0912)]: in assay [1], the “rod outer segment growth distance Dg” value is -0.61 ± 0.18 um. Besides, the “rod outer segment shedding distance Ds” value in assay [2] is 0.16 ± 0.13 um.
The matching figures for `Cn1cc(-c2[nH]c3cc(NC(=O)[C@H](N)C4CCCCC4)cc4c3c2C=NNC4=O)cn1`: -0.77 ± 0.2 um and 0.01 ± 0.14 um.
On to `Cc1ncc([N+](=O)[O-])n1CCO` [Metronidazole], for which, in assay [1], the “rod outer segment growth distance Dg” value was found to be 0.41 ± 0.2 um. For the same compound, in assay [2], the “rod outer segment shedding distance Ds” value stood at 0.88 ± 0.26 um.
The like results for `O=C(/C=C/c1ccccc1)NC(NC(=S)Nc1cccc2cccnc12)C(Cl)(Cl)Cl` (configuration not stated) [Salubrinal] were, in that order, -0.7 ± 0.22 um and 0.27 ± 0.16 um.
The matching figures for `O=C(CCCCCCC(=O)Nc1ccccc1)NO` [Vorinostat (SAHA, MK0683)]: -0.95 ± 0.083 um and -0.36 ± 0.19 um.
The like results for `COc1ccc(S(=O)(=O)Nc2cccnc2Nc2ccc(O)cc2)cc1` were, in that order, -1.8 ± 0.24 um and -0.13 ± 0.25 um.
For `CCCS(=O)(=O)Nc1ccc(F)c(C(=O)c2c[nH]c3ncc(Cl)cc23)c1F`, in assay [1], the “rod outer segment growth distance Dg” value is -0.25 ± 0.3 um. The “rod outer segment shedding distance Ds” value in assay [2] is -0.05 ± 0.21 um.
The matching figures for `NC(=O)c1ncn([C@@H]2O[C@H](CO)[C@@H](O)[C@H]2O)c1O` [Mizoribine]: -0.78 ± 0.22 um and -0.56 ± 0.27 um.
`CO[C@@H]1[C@@H](OC(N)=O)[C@@H](O)[C@H](Oc2ccc3c(O)c(NC(=O)c4ccc(O)c(CC=C(C)C)c4)c(=O)oc3c2C)OC1(C)C` [Novobiocin Sodium]: the “rod outer segment growth distance Dg” value in assay [1] amounted to 0.63 ± 0.23 um. Besides, the “rod outer segment shedding distance Ds” value in assay [2] came out at 0.92 ± 0.28 um.
The like results for `CCCCNc1cc(C(=O)O)cc(S(N)(=O)=O)c1Oc1ccccc1` [Bumetanide] were, in that order, 1.05 ± 0.31 um and 0.49 ± 0.19 um.
With `CC1(C)O[C@@H]2[C@@H](CO[C@@]3(COS(N)(=O)=O)OC(C)(C)O[C@@H]23)O1` [Topiramate], in assay [1], the “rod outer segment growth distance Dg” value was -0.88 ± 0.17 um. Also, the “rod outer segment shedding distance Ds” value in assay [2] is -0.02 ± 0.2 um.
The matching figures for `C[C@]12CC[C@@H]3c4ccc(O)cc4CC[C@H]3[C@@H]1C[C@@H](O)[C@@H]2O` [Estriol]: 0.39 ± 0.24 um and 0.19 ± 0.23 um.
Consider `Cc1ccc(S(=O)(=O)OCC(=O)Nc2ccc(C(=O)O)c(O)c2)cc1`, for which the “rod outer segment growth distance Dg” value in assay [1] came to 0.03 ± 0.29 um. Besides, the “rod outer segment shedding distance Ds” value in assay [2] was -0.26 ± 0.2 um.
The like results for `CN(C)CCc1c[nH]c2ccc(CS(=O)(=O)N3CCCC3)cc12` [Almotriptan Malate] were, in that order, 0.17 ± 0.21 um and -0.17 ± 0.26 um.
The matching figures for `CCOC(=O)c1c(C)n(C)c2ccc(O)cc12` [Mecarbinate]: 0.59 ± 0.21 um and -0.25 ± 0.25 um.
As to `COc1ccc2[nH]cc(CCNC(C)=O)c2c1` [Melatonin], in assay [1], the “rod outer segment growth distance Dg” value was found to be 0.37 ± 0.19 um. In addition, in assay [2], the “rod outer segment shedding distance Ds” value is -2.26 ± 0.23 um.
The matching figures for `NC(=O)c1noc([C@H](CCCC2CCCCC2)CC(=O)NO)n1`: -0.15 ± 0.21 um and 0.57 ± 0.34 um.
The matching figures for `COc1cccc2c1C(=O)c1c(O)c3c(c(O)c1C2=O)C[C@@](O)(C(=O)CO)C[C@@H]3O[C@H]1C[C@H](N)[C@H](O)[C@H](C)O1` [Doxorubicin (Adriamycin)]: -0.07 ± 0.18 um and -2.32 ± 0.24 um.
On to `CCCC1O[C@@H]2C[C@H]3[C@@H]4CCC5=CC(=O)C=C[C@]5(C)[C@H]4[C@@H](O)C[C@]3(C)[C@]2(C(=O)CO)O1` (some centres not stated) [Budesonide], for which the “rod outer segment growth distance Dg” value in assay [1] was -0.75 ± 0.14 um. Further, in assay [2], the “rod outer segment shedding distance Ds” value was 0.36 ± 0.17 um.
The matching figures for `COc1cc(Nc2ncc(F)c(Nc3ccc4c(n3)NC(=O)C(C)(C)O4)n2)cc(OC)c1OC` [R406 (free base)]: -0.42 ± 0.21 um and 0.6 ± 0.17 um.
As for `C=CC(=O)Nc1cccc(Oc2nc(Nc3ccc(N4CCN(C)CC4)cc3OC)ncc2Cl)c1`, in assay [1], the “rod outer segment growth distance Dg” value was -1.03 ± 0.21 um. Further, the “rod outer segment shedding distance Ds” value in assay [2] was -0.02 ± 0.21 um.
The like results for `CC(C)(C)C(=O)OCOP(=O)(COCCn1cnc2c(N)ncnc21)OCOC(=O)C(C)(C)C` [Adefovir Dipivoxil] were, in that order, 0.74 ± 0.28 um and -0.61 ± 0.15 um.
On to `COC(=O)CCSCc1ccc(-c2onc(C)c2NC(=O)OC(C)c2ccccc2Cl)cc1` (configuration not stated), for which the “rod outer segment growth distance Dg” value in assay [1] is -0.93 ± 0.17 um. Also, the “rod outer segment shedding distance Ds” value in assay [2] is -0.14 ± 0.12 um.
Turning to `CCc1nc(N)nc(N)c1-c1ccc(Cl)cc1` [Pyrimethamine], the “rod outer segment growth distance Dg” value in assay [1] is -0.74 ± 0.27 um. Moreover, the “rod outer segment shedding distance Ds” value in assay [2] was -1.28 ± 0.31 um.
The like results for `COCCOc1ccc2c(c1)ncn2-c1ccc2cccc(N3CCC(N)CC3)c2n1` were, in that order, -1.62 ± 0.2 um and -0.6 ± 0.17 um.
Take `COc1ccc(-c2ccc3c(N4CCOCC4)nc(N4C[C@@H](C)O[C@@H](C)C4)nc3n2)cc1CO`: in assay [1], the “rod outer segment growth distance Dg” value was found to be 0.12 ± 0.23 um. Moreover, the “rod outer segment shedding distance Ds” value in assay [2] came to 0.08 ± 0.21 um.
Consider `CCOC(=O)C1=C[C@@H](OC(CC)CC)[C@H](NC(C)=O)[C@@H](N)C1` [Oseltamivir phosphate], for which the “rod outer segment growth distance Dg” value in assay [1] is -0.33 ± 0.21 um. Moreover, the “rod outer segment shedding distance Ds” value in assay [2] is -0.58 ± 0.14 um.
Consider `CC(=O)OCC[N+](C)(C)C` [Acetylcholine Chloride], for which the “rod outer segment growth distance Dg” value in assay [1] was -0.19 ± 0.21 um. Further, the “rod outer segment shedding distance Ds” value in assay [2] is -0.23 ± 0.17 um.
As for `NC(=O)N1c2ccccc2C=Cc2ccccc21` [Carbamazepine], in assay [1], the “rod outer segment growth distance Dg” value is 0.4 ± 0.27 um. Moreover, the “rod outer segment shedding distance Ds” value in assay [2] came to 0.07 ± 0.13 um.
In the case of `CC1CNc2c(cccc2S(=O)(=O)N[C@@H](CCCNC(=N)N)C(=O)N2CC[C@@H](C)C[C@@H]2C(=O)O)C1` (some centres not stated) [Argatroban], the “rod outer segment growth distance Dg” value in assay [1] turned out to be 0.62 ± 0.24 um. For the same compound, the “rod outer segment shedding distance Ds” value in assay [2] is -0.53 ± 0.25 um.
